Laboratory results taken from PubChem BioAssay AID1347426 (Functional Genomics Laboratory (NCATS/FGL), 2020).
Hit rate of the full screen: of about 31,000 sequences, about 1,400 (4.5%) were called active.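 How the source made its calls: active means median seed-adjusted z-score above 1 or below -1; inactive means the rest.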 The list shows a part of the results.

Test: Novel Modifiers of Survival Motor Neuron (SMN) Protein: Gene Identification via Genome-wide siRNA Screen;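 further: luminescence tracks full-length SMN protein made from the SMN2 reporter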
Conditions: HEK293T SMN2-luciferase reporter, siRNA knockdown, 72 h; actives lie on both sides
In short: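 siRNA screen, 10418 genes ×3 siRNAs; 1 pmol/well, lipid reverse transfection into HEK293T SMN2-luc reporter line. 72 h, 37 °C, 5% CO2; ONE-Glo readout. Data: neg-ctrl normalized, log10, MAD; hit = MAD >1.0 or < -1.0.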

Sequence	median seed-adjusted z-score
GGAGUUUGGUGAUGCGGAATT against BRUNOL6	inactive: -0.542
CGCUGGUGGCCGUGUAUUATT against STUB1	inactive: 0.202
GGAUAUGCCUUAGAUUACATT against PRTFDC1	inactive: 0.493
GGCUCUUACUCACUCAAGATT against ANGPTL2	inactive: 0.141
GGAAGAUGAGCAAAAAGAATT against SYT12	inactive: -0.329
GCAUGACGACUGAACUGAUTT against MDH1B	active: -1.13
CGCUAUGAUCUGUACCACATT against TMEM147	inactive: 0.233
UGUCAUCCACAUCAAUGAATT against EPOR	inactive: -0.084
GACUCUCUACCAUGGAUUUTT against SLC25A42	active: -1.02
CCAUCAUCCUUUUAGCGAUTT against FZD3	inactive: -0.0208
GCAAGUUACGGGACCGAAUTT against 12-Sep	inactive: 0.286
CACUGAAUUUGCUAAAAAUTT against SIK1	inactive: 0.887
GGAAGAAAGUGAAGCUUGATT against DNAJC17	inactive: 0.751
CCAACGAAGUGGUUACCUUTT against PFTK1	inactive: 0.088
AGCUGAAGCUCGACCACUATT against FKBP8	inactive: -0.304
AGAACUUCAUGGACAUAGATT against CNR1	inactive: 0.0359
GCCUUUCGGUUCCUGACCATT against CDC34	inactive: 0
CCCUAACAGUGUCUAAUGATT against CAPZA2	inactive: 0
GGACAUGAAUGGAAAACCATT against SORCS2	inactive: 0.648
CCAACACCAAUCUAGCUAATT against MYH2	inactive: -0.73
GGACUUGGUUACUUAUAUATT against ATP6V1C1	inactive: 0.0821
GAAUCGAGAUCGGAUGUCATT against HTT	inactive: -0.234

Laid out differently: results already given.
Sequence | median seed-adjusted z-score
AGAACUUCAUGGACAUAGATT against CNR1 | inactive: 0.0359
GCCUUUCGGUUCCUGACCATT against CDC34 | inactive: 0
CCCUAACAGUGUCUAAUGATT against CAPZA2 | inactive: 0
GGACAUGAAUGGAAAACCATT against SORCS2 | inactive: 0.648
CCAACACCAAUCUAGCUAATT against MYH2 | inactive: -0.73

(cont.)

Sequence	median seed-adjusted z-score
CAUCGAAGAAGUUACUGCATT against TDRD1	inactive: -0.164
GCGAUGACGUGAUCUGUGATT against COL1A1	inactive: 0
GCAACUUUGAUAUUCCAAATT against CLIC4	inactive: -0.498
AAAUUCAUGUAUCCACUUATT against SCARA5	inactive: -0.278
UUCACUUAAUGAUACCGAATT against VAPA	inactive: -0.623
CCCUGACAGGUCUCAAGUUTT against FSD1	inactive: 0.685
CGAUCGGAUUGUAAGGACATT against EML4	inactive: 0.958
GGAGCUUUCUAACCAUGUUTT against MTNR1B	inactive: -0.393
CUAACGAACUGAUCUGGUUTT against MAP3K4	inactive: 0.72
CAGAGACUCUAGAACUUAUTT against MYBL1	inactive: 0.344
GAACAGUAUUCACCUAGUUTT against FGFR2	inactive: 0.158
GCGAAGAGAUCUACAUUAATT against ABR	inactive: 0.314
AGACCGAACUGGUUUCGCUTT against CDKN2C	inactive: -0.0789
GCCUCAGUGUUAUUCGAUATT against MAP1B	inactive: 0.139
CGAGUUAUUGAGUAUCAUATT against TEX14	inactive: -0.107
GGGUCGUCAGUUACAAGGATT against RIPK5	inactive: -0.00523
GAAGUGAGGUUUCCACUGUTT against FOXP3	inactive: -0.421
CCACCUUACUUUCCUGAAUTT against TMEM171	inactive: 0.278
GUAUGAGGCUAUGACUAAATT against SSX2	inactive: -0.583
GGCUCACAGGUGAUCAUCATT against ZNF653	inactive: -0.202
GAUUAUUAAGGGCAAACCATT against SLC22A11	inactive: 0
GCUUUCUAAUGAAAGUAGATT against OSBPL3	inactive: 0.0159

Sequence	median seed-adjusted z-score
GCCUUUAUGUGGACAUUAATT against SLCO2B1	inactive: 0.289
AAAUGGAAGGAAUAGGUUUTT against ARL6IP5	inactive: -0.202
ACACGGCAUUAAAAAGCUATT against JRK	inactive: -0.624
GAUCAGUCUUUAUGCUGAATT against VPS41	inactive: 0.52
AGUUCAGAGGAACACCUAATT against EDN1	inactive: 0.0717
UCGUCAUGUUGAACUAUAATT against ERBB3	inactive: -0.561
GGAGAAAACCUUCGAGCAGTT against NKX6-2	inactive: 0.101
CAACCAAUGCGACCUUAAATT against PTP4A1	inactive: 0.103
GGAACACUUUUUGAACUCATT against SKP1	inactive: -0.0492
CGACAGCGGAUGUAAACUATT against PKD1	inactive: -0.228
GACUAUCAUUGACAUCAAUTT against ADAMTS5	inactive: -0.306
GCUCAAGAGUCUAAACGAUTT against ZC3H7A	inactive: 0.208
GGAUGUAAACAGUCUUCGATT against JMJD1A	inactive: 0.466
GCUGCAAGGUGAUCAUUGATT against LIMK2	inactive: -0.0288
CCAGGUCUCGAAAACCAAATT against EN2	inactive: 0.319
GAAUCGGCAAGGUUGGAAATT against PSMD7	inactive: 0.0973
GAGUGAUCAGAGACCGAAATT against IARS	inactive: -0.198
CAGCUGUACCGAUUAAGCATT against MEP1A	inactive: 0.209
CGACAGCGAUACCUCCUUATT against LMX1B	inactive: 0.125
GGAACAGUUCUAUUCUAUUTT against SORT1	inactive: -0.43
CGUAUAUGCCGAGAUCUCATT against PCNA	inactive: 0.0727
GGACUGGUCUUGUUAGGCUTT against SEC24C	inactive: 0.163

Sequence	median seed-adjusted z-score
GCAUCUACAGUGGAUUGUATT against LRRN3	inactive: 0
CCAACGAUCAUGUUAAUAATT against FH	inactive: 0.182
GGUGAGCUUGGAUAUGAAATT against OGFRL1	inactive: 0.0339
GUCUGUUAUCAGAACUUAATT against IDE	inactive: -0.081
GGAUAAUACAAAUCUACGATT against IL1RL2	inactive: -0.555
GGGUUGCUAGAAAAUCGUATT against USP37	inactive: 0.0907
GCUGGAAGCCUGUCAAAGATT against OAS1	inactive: 0.442
GCUGUCUACUUACCACCAATT against ESD	inactive: -0.196
GAGAGCAAUUCUACCAUAATT against HMGCS2	inactive: -0.465
GCAACUACGUCUUCACCAUTT against CACNA1H	inactive: -0.147
CAAUGUUAGGAGUCAGUCATT against ACTL6A	active: 1.11
GAGUGGUCUUUUCAACACUTT against TGIF1	inactive: 0.303
CACUAACUCUGGACCCUAATT against TRIM69	inactive: 0.214
GAAUUAUCCCAUCUCAGUATT against MYOZ2	inactive: 0.315
GGACAGAGGGCAACUAUAATT against KCNV2	active: -1.13
CAGCUAUGGUUCUUCCGAUTT against SLC35B2	inactive: -0.313
UCUCAGAUCUCUUCCCAGATT against ROBO4	inactive: -0.431
GAUUUUCGCACAAUUGGAATT against PANK3	inactive: -0.185
CCCUGUACGUGUACAUCAUTT against MPG	inactive: -0.0888
GAAGAUUGCUCAGCGAUUATT against PRPF3	inactive: -0.289
GUCCUGAACUGGUCAAUGATT against ZC3H15	inactive: 0.191
GAAUGUUGACUCUACUGCATT against POLR3K	inactive: 0.504

Sequence	median seed-adjusted z-score
GUCUACAACUCCACACUGATT against WFS1	inactive: 0.696
GGGAGUUUCUAGGAUGAAATT against SLC45A3	inactive: -0.0257
GGGACAUGUUUGUGAAGGATT against SDK1	inactive: 0.604
GGAGGUCCCAAGAAUCUCATT against ERCC6	inactive: 0.0421
GCUUUGUUAUGUAAGCUUATT against ZNF771	inactive: 0.108
GCGUAUUAGGAGUCUCAGATT against DTX3L	inactive: 0.0785
CGAACCGGAUGGUAGUGUATT against ALOXE3	inactive: -0.504
GCAUCAGCUUCGAUGAGUATT against S100A16	inactive: 0.24
GGCUCAAGUUCAACGAGUUTT against ARL4C	inactive: -0.61
AGAAGGUUAAUUAUUCUGATT against S100A7L2	inactive: 0.283
CUGUCUAACUGGAACCGGUTT against APPBP2	inactive: -0.0432
GGAAUGCGAUGUCUCCUUATT against HK3	inactive: 0.0759
CCACUAUGGUCUUAGUGAATT against SERPINA7	inactive: 0.0925
CGACAGGGUAUCCAACUAATT against WASL	inactive: 0.143
GGCUUUUGCGUGGAAUUCATT against ZNF600	inactive: 0.252
CAGUACUGCUUAUCAGAGATT against PAH	inactive: 0.487
GCAGUUAUUUCGUCACUGUTT against NDUFA8	inactive: -0.752
CCCUCCCAUUAGUAGCUUUTT against RELT	inactive: 0.349
GCGACUAUUAUAUCCAGUUTT against LMTK2	inactive: -0.565

Some values from the entries so far:
Entry for AGAAGGUUAAUUAUUCUGATT against S100A7L2 under median seed-adjusted z-score: inactive: 0.283
Entry for GCUUUGUUAUGUAAGCUUATT against ZNF771 under median seed-adjusted z-score: inactive: 0.108
Entry for GCGUAUUAGGAGUCUCAGATT against DTX3L under median seed-adjusted z-score: inactive: 0.0785
